For three molecules, binding results are on record in publication PMC9389318.

By UniProt entry, the sequences of proteins in these tests, tags left out. Residues count along the entry.
UniProt P01833, residues 19-764: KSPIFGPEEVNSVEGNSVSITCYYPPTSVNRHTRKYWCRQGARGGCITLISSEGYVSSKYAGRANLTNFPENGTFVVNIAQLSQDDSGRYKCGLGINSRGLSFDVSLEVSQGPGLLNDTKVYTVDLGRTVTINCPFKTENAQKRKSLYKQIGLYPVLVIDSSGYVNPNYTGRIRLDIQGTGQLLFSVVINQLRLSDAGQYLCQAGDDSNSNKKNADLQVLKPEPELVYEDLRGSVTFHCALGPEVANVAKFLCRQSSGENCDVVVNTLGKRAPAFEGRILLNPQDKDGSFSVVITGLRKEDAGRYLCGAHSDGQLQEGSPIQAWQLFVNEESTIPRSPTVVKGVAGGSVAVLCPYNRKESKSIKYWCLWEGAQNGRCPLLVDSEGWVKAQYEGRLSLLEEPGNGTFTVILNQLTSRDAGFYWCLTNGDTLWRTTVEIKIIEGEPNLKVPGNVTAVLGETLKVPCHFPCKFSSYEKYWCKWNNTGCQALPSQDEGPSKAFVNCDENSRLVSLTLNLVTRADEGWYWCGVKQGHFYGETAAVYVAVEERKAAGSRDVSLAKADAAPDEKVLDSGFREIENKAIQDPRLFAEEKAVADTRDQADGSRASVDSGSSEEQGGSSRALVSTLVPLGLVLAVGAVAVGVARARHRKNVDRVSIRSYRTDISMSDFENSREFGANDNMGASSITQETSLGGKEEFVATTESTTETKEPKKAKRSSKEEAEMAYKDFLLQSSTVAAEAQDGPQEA
UniProt Q13751, residues 18-1172: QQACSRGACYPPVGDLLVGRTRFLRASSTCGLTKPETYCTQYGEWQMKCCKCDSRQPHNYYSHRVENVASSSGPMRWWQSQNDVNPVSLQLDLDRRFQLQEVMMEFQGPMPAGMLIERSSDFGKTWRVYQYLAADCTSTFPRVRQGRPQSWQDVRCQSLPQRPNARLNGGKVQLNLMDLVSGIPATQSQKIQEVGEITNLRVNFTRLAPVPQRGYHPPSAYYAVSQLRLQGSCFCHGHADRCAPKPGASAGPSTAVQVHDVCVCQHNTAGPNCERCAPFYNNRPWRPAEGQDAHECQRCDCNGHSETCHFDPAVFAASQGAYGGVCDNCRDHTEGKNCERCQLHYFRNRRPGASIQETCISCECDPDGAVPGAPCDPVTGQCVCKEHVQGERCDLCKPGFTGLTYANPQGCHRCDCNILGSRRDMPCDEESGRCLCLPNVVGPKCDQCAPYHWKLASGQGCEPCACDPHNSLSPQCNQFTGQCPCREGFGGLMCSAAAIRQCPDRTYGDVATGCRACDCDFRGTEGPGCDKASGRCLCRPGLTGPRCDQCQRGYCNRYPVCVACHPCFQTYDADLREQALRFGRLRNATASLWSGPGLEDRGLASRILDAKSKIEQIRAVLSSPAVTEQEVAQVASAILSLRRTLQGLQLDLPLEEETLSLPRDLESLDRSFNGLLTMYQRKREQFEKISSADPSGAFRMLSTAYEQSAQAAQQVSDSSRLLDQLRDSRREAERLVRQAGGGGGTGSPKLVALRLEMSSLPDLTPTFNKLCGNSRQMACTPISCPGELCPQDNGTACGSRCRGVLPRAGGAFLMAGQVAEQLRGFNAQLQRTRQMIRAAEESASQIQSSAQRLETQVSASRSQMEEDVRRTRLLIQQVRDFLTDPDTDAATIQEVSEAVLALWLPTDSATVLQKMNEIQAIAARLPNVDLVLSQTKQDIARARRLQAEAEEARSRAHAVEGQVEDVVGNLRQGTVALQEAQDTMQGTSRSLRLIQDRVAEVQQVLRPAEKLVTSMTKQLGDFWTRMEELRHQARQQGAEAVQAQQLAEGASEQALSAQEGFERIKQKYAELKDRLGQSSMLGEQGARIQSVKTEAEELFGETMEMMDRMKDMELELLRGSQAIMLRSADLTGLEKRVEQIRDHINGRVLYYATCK

Test [1] concerns the target Polymeric immunoglobulin receptor (PIGR), as in the co-immunoprecipitation with LAMB3 (UniProt P01833). Description: co-IP; co-immunoprecipitation of PIGR and LAMB3; IgG as control; cells, constructs and precipitating antibody not stated.
The target in test [2] is T1, RE1 silencing transcription factor (REST) tagged with Flag (UniProt Q13127).
T1 sequence: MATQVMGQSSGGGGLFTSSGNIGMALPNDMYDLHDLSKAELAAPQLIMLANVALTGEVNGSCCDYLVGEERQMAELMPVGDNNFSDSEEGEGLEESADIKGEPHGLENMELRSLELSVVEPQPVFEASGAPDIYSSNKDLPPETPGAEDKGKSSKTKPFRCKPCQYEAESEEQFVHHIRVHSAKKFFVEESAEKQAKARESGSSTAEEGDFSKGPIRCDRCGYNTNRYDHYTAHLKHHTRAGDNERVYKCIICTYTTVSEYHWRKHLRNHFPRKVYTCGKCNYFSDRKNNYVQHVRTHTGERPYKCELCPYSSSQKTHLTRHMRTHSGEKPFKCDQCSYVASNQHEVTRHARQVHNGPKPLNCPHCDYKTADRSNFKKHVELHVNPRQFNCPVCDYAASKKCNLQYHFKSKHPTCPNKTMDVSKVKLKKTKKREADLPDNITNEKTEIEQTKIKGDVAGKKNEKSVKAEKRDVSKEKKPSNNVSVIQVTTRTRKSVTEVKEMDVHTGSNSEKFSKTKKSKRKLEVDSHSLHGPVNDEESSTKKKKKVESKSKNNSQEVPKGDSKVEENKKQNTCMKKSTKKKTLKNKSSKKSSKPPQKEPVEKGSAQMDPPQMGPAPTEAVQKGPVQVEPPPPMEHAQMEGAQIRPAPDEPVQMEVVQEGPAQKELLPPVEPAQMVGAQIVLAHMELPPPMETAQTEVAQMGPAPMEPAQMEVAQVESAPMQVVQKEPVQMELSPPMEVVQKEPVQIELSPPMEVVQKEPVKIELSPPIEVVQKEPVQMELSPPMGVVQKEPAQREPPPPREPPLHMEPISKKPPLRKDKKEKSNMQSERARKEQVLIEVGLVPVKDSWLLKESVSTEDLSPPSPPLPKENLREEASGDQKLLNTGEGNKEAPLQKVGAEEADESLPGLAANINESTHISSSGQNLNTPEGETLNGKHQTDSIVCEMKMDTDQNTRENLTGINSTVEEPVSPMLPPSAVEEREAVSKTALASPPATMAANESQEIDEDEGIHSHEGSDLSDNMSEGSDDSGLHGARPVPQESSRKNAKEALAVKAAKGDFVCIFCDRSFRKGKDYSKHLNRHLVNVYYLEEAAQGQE
Briefly: co-IP; RKO and HCT-8 cells transfected with PIGR-GFP and/or REST-Flag; lysed in non-ionic detergent RIPA buffer; precipitation with GFP antibody or with Flag antibody, blot for the partner.

Test [3] addresses Polymeric immunoglobulin receptor (PIGR) tagged with GFP (UniProt P01833). Described as above.

Results are given in words; binding and its absence hold for the method and conditions named. Binding seen in cells or lysates may run through a third protein. Some results given as binding are weak or reduced against the parent protein; the word gives no strength. For part of these data: Tags and fused reporters may be left off the sequences shown.

With “Laminin subunit beta 3 (LAMB3) (from UniProt Q13751 18-1172)”, the binding entry in test [1] is “no binding”.
For the molecule “Polymeric immunoglobulin receptor (PIGR) tagged with GFP (from UniProt P01833 19-764)”, the binding result in test [2] is given as “binds”.

B1: RE1 silencing transcription factor (REST) tagged with Flag (protein, UniProt Q13127 1-1097)
chain: T1 sequence
Take B1: the binding result in test [3] is reported as “binds”.
